# Screening data, single-dose tests

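Assay of Toxoplasma gondii numbers, read through their beta-galactosidase reporter with a colour substrate. Tested at 50 µM. Higher reads as fewer parasites (inferred from which compounds were picked for retests). Size under these conditions: about 18,000 compounds, about 170 of them at 50% or above in at least one test.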

Results are given as percent effect. The record does not define 0% and 100%; most values in the screen are far below 50% and negative numbers occur (in some assays of this library far below -100). Compounds were drawn at random from those tested, without regard to their results.

compound | effect
Cc1cccc2[nH]c(CO)cc12 | -2.804
COCc1nnc(N)s1 | -31.08
CN(C(=O)c1cccn1C)C1CCCC1 | 14.61
COC1(C)CN(C(=O)Nc2ccc(F)cc2)C1 | 3.194
CC(CO)NC(=O)NCc1ccccc1 (stereo unspecified) | 16.38
COCCN(C)CCNC(=O)c1cccc(Cl)c1 | -0.227
COc1cc(CCC(=O)Nc2cc[nH]n2)cc(OC)c1 | -18.39
C1CC(C2CNC2)CCO1 | 67.45
CC(C)(O)CCN1CCC(NC(=O)C2CCC2)CC1 | 0.697
CN(C)C(=O)c1cccc(CC#N)c1 | -2.295
COC(=O)CNC(C)c1c(F)cccc1OC (stereo unspecified) | 1.913
C1CC(NC2COC2)CCO1 | 12.23
CS(=O)(=O)CCN(CC(O)c1ccc(F)cc1)C1CC1 (stereo unspecified) | 1.202
COc1ccc(C(=O)NCc2c(C)noc2C)cn1 | 3.417
Cc1ccc(CN(C)C(=O)NCCC(=O)N(C)C)s1 | 10.46
CCOC(=O)c1c(C)nc2c(C#N)cnn2c1C | 1.145
CSc1ccc(C(CN)N(C)C)cc1 (stereo unspecified) | 4.255
COC(=O)C(C)SCc1noc(C2CC2)n1 (stereo unspecified) | 1.688
Cc1cnc(C(=O)N(C)CCc2cnn(C)c2)cn1 | -1.096
O=C(CCCn1cccn1)NCC1CCCCO1 (stereo unspecified) | 7.042
COc1cc(C(=O)NC(C)(C)CC(N)=O)sc1Br | 4.585
CN(C)C(=O)CCCNc1cc([C@H]2C[C@@H](N)C2)ncn1 | 0.5971
COC[C@H]1CCCN1CCC(=O)Nc1cccnc1 | 13.12
O=C(NCCSCCCO)c1cccc2cc[nH]c12 | -2.533
COC(=O)CCCC(=O)N1CCC2(CCCC2)C1 | -7.802
CC(N)c1noc(-c2ccc(Cl)cc2)n1 (stereo unspecified) | 8.601
COc1ccc(NC(=O)NCCNC(C)=O)cc1C#N | -14.44
CC(=O)Nc1ncc(Br)s1 | 8.521
CCN(C1CC1)S(=O)(=O)c1ccc2c(c1)OCCO2 | -2.921
Cc1cc(NCCO)nc2ccccc12 | -2.255
NCc1cc(=O)n2ccccc2n1 | 13.83
CCOc1ccc(NC(=O)N2CCC(N)C2)cc1C#N (stereo unspecified) | 35.53
CNC(=O)c1noc(CN(C)CC2CCC2)n1 | 2.514
CN(C)CCCOC1CCNCC1 | 4.559
CSCc1noc(CN2CC[C@@](C)(O)[C@@H](O)C2)n1 | -4.031
COc1ccc2c(c1)NCC(C)O2 (stereo unspecified) | -11.17
O=c1c2ccsc2ncn1CCn1cncn1 | 6.756
N#Cc1ccc(S(=O)(=O)N2CCC[C@@H](N)C2)cc1Cl | -8.316
CCOC(=O)N1CCN(C(=O)C2CCNCC2)CC1 | -13.9
NCC(=O)NCCc1c[nH]c2ccccc12 | -10.01
CC(CN1CCOCC1)Nc1ccncn1 (stereo unspecified) | 2.784
COc1cccc(CNCc2ccc(C(N)=O)cc2)c1 | -7.834
CCOC(=O)C1(COC)CCCNC1 (stereo unspecified) | 9.42
CC(Cn1c(=O)[nH]c2ccccc2c1=O)N1CCCC1 (stereo unspecified) | 4.251
CC(=O)c1ccnc(N2CCC(NS(C)(=O)=O)CC2)c1 | 8.382
c1ccc(CN2CCSCC2)nc1 | 7.988
COCC(C)(NCc1ccc(F)cc1)C(=O)OC (stereo unspecified) | -0.3426
CC(C(=O)NC1CC1)N1CCN(C)c2ccccc2C1 (stereo unspecified) | 12.56
NC(=O)C[C@@H](N)c1ccc(F)cc1 | -11.76
Cc1nn(C)c(C)c1S(=O)(=O)NC(CN)CC(C)C (stereo unspecified) | -18.18

For reference, 5 entries once more:

{"compound": "O=c1c2ccsc2ncn1CCn1cncn1", "effect": 6.756}
{"compound": "COC1(C)CN(C(=O)Nc2ccc(F)cc2)C1", "effect": 3.194}
{"compound": "CC(C(=O)NC1CC1)N1CCN(C)c2ccccc2C1", "stereo": "stereo unspecified", "effect": 12.56}
{"compound": "N#Cc1ccc(S(=O)(=O)N2CCC[C@@H](N)C2)cc1Cl", "effect": -8.316}
{"compound": "CN(C)C(=O)CCCNc1cc([C@H]2C[C@@H](N)C2)ncn1", "effect": 0.5971}

Source: ChEMBL document CHEMBL3988442, “University of Dundee, Small-Polar-MMV Screening Library” (2021).